Measurements: PMC11187910
No constants are given. Whether binding was seen depends on the method and setting. In cells and extracts the contact can be indirect. Some binding calls cover weakened binding; strength is not graded here.

T1: OCT6 (human (endogenous in Ishikawa)) (UniProt Q03052)
T1 sequence: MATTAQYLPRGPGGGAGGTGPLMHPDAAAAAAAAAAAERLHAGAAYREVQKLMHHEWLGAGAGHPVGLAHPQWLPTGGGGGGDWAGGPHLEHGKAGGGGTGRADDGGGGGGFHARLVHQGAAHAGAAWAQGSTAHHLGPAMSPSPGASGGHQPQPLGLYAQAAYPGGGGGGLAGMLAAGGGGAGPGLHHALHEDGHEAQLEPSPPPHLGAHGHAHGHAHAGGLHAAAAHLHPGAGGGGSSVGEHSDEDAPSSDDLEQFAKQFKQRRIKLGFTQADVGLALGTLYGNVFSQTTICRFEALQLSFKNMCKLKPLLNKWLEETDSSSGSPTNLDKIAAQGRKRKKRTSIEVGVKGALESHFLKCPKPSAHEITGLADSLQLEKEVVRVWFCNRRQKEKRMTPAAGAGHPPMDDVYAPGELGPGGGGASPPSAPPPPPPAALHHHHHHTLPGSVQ

B1: OCT6 (protein, UniProt Q03052 1-451)
chain: T1 sequence

Tests used:
[1] = target: T1, OCT6 (human (endogenous in Ishikawa)); experiment: co-IP; chromatin fraction of Ishikawa cells with or without MPA (pellet solubilised in RIPA buffer with 500 mM NaCl); immunoprecipitation and immunoblot
[2] = target: T1, OCT6 (human (endogenous in Ishikawa)); experiment: co-IP; endogenous proteins; Ishikawa and HEC1-A cells with or without 40 µM MPA for 24 h; NP40 lysis buffer; indicated antibodies overnight, then protein A/G agarose beads 4 h at 4 °C; immunoblot
[3] = target: Flag-tagged IDH1 wild type (isocitrate dehydrogenase 1) (human) (UniProt O75874); experiment: co-IP; Flag-tagged proteins; cells with or without MPA; NP40 lysis buffer; Flag-conjugated M2 beads overnight at 4 °C; immunoblot

Row | Molecule | binding [1] | binding [2] | binding [3]
1 | IDH1, endogenous (from UniProt O75874 1-414) (enzyme) | binds | binds | 
2 | B1 |  |  | binds
